Test results: PubChem BioAssay AID192 (DTP/NCI, 2004)
The list is a part of this screen's results and no random one: it is rich in T/C values a quarter to a half above the control, in often repeated tests (any T/C) and in doses without a T/C. Further doses and runs are listed elsewhere. T/C: endpoint of the treated group in % of that of the vehicle group. Some entries give survivors of the animals treated and no T/C: the source holds a T/C of zero for them, seemingly a mark for toxic or unscored doses. Some doses without a T/C left all or most animals alive at the check, yet need not have been tolerated: the source hardly ever lists a survival T/C far under the control, and the zero likely stands for such cases as well. Counts of survivors are from the toxicity check (mostly the fifth day) where no day follows; animals may have died later. Schedules are NCI's codes, read here as Q, the interval in days (D) or hours (H), X, the number of doses. Some entries hold several experiments; their values stand side by side, smallest first. For survival time, this PubChem deposit counts one and a half times the control or more as active, and values a quarter to a half above the control carry no call in these data; other NCI protocols may use other cut-offs. Some T/C values are followed by the survivors on the day toxicity was checked, most often the fifth; where none is given, no animal had died by that day. Peptide text beside a SMILES is read from it. * marks the point of attachment. Cbz = O=C(OCc1ccccc1)*

Tested on: BDF1 mice, B16 melanoma ip, median survival T/C
Test: NCI In Vivo Anticancer Drug Screen. Data for tumor model B16 Melanoma (intraperitoneal) in B6D2F1 (BDF1) mice
Details: T/C endpoint: median survival time, higher T/C = longer survival
Procedure, shortened: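 Antitumor activity is assessed in mice bearing a transplanted tumor, with survival or tumor size compared against vehicle-dosed controls and expressed as T/C.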

[1] = dose: 20.0 mg/kg/injection, schedule: Q01DX009 (ip), vehicle: saline
[2] = dose: 12.5 mg/kg/injection, schedule: Q01DX009 (ip), vehicle: Klucel (hydroxypropylcellulose) (HPC)
[3] = dose: 100.0 mg/kg/injection, schedule: Q01DX009 (ip), vehicle: Klucel (hydroxypropylcellulose) (HPC)
[4] = dose: 400.0 mg/kg/injection, schedule: Q01DX009 (ip), vehicle: Klucel (hydroxypropylcellulose) (HPC)
[5] = dose: 25.0 mg/kg/injection, schedule: Q01DX009 (ip), vehicle: saline with Tween-80
[6] = dose: 100.0 mg/kg/injection, schedule: Q01DX009 (ip), vehicle: saline with Tween-80
[7] = dose: 200.0 mg/kg/injection, schedule: Q01DX009 (ip), vehicle: Klucel (hydroxypropylcellulose) (HPC)
[8] = dose: 200.0 mg/kg/injection, schedule: Q01DX009 (ip), vehicle: saline with Tween-80
[9] = dose: 400.0 mg/kg/injection, schedule: Q01DX009 (ip), vehicle: saline with Tween-80
[10] = dose: 12.5 mg/kg/injection, schedule: Q01DX009 (ip), vehicle: saline
[11] = dose: 12.5 mg/kg/injection, schedule: Q01DX009 (ip), vehicle: saline with Tween-80
[12] = dose: 50.0 mg/kg/injection, schedule: Q01DX009 (ip), vehicle: saline with Tween-80

`Cn1c(CCCC(=O)O)nc2cc(N(CCCl)CCCl)ccc21` was tested, and the T/C (dose: 2.5 mg/kg/injection, schedule: Q01DX009 (ip), vehicle: saline) was 137 % of control, the T/C (dose: 5.0 mg/kg/injection, schedule: Q01DX009 (ip), vehicle: saline) was 140 % of control and the T/C [1] was 149 % of control. For the same compound, the survivor count [1] was 9 of 10 and the survivor count (dose: 30.0 mg/kg/injection, schedule: Q01DX009 (ip), vehicle: saline) was 10 of 10.
In the case of `O=C(O)CN(CCN(CC(=O)O)CC(=O)O)CCN(CC(=O)O)CC(=O)O`, the survivor count [2] is reported as 10 of 10, the survivor count [3] is reported as 6 of 10 and the survivor count [4] is reported as 0 of 10.
`CCC1(O)CC(OC2CC(N(C)C)C(OC3CC4OC5CC(=O)C(C)OC5OC4C(C)O3)C(C)O2)c2c(cc3c(c2O)C(=O)c2c(O)ccc(O)c2C3=O)C1C(=O)OC` (stereo not drawn) was tested, and the survivor count (dose: 3.0 mg/kg/injection, schedule: Q01DX009 (ip), vehicle: saline) was 10 of 10, the survivor count (dose: 6.0 mg/kg/injection, schedule: Q01DX009 (ip), vehicle: saline) was 4 of 10 and the survivor count (dose: 6.0 mg/kg/injection, schedule: Q04DX003 (ip), vehicle: saline) was 8 of 10.
With `Cc1cc(Cl)ccc1NC(=O)Nc1ccc(Cl)c(Cl)c1` the survivor count (dose: 200.0 mg/kg/injection, schedule: Q04DX003 (ip), vehicle: Klucel (hydroxypropylcellulose) (HPC)) was 10 of 10.
`CCCCCN(C)/N=N/c1nc[nH]c1C(N)=O` was tested, and the T/C (dose: 6.25 mg/kg/injection, schedule: Q01DX009 (ip), vehicle: carboxymethylcellulose (CMC)) was 132 % of control, the T/C (dose: 12.5 mg/kg/injection, schedule: Q01DX009 (ip), vehicle: carboxymethylcellulose (CMC)) was 126 % of control and the survivor count (dose: 25.0 mg/kg/injection, schedule: Q01DX009 (ip), vehicle: carboxymethylcellulose (CMC)) was 6 of 6. The survivor count (dose: 50.0 mg/kg/injection, schedule: Q01DX009 (ip), vehicle: carboxymethylcellulose (CMC)) was 6 of 6 and the survivor count (dose: 100.0 mg/kg/injection, schedule: Q01DX009 (ip), vehicle: carboxymethylcellulose (CMC)) was 6 of 6.
With `NCC(c1ccccc1)c1ccccc1` the survivor count (dose: 75.0 mg/kg/injection, schedule: Q01DX009 (ip), vehicle: saline) was 0 of 10, the survivor count (dose: 115.0 mg/kg/injection, schedule: Q01DX009 (ip), vehicle: saline) was 0 of 10 and the survivor count (dose: 170.0 mg/kg/injection, schedule: Q01DX009 (ip), vehicle: saline) was 0 of 10.
For `Nc1ccccc1SC1CC(=O)N(c2ccc(I)cc2)C1=O` (stereo not drawn), the survivor count [5] was 5 of 6, the survivor count [6] was 6 of 6 and the survivor count [7] was 9 of 10. For the same compound, the survivor count [8] was 5 of 6, the survivor count [4] was 9 of 10 and the survivor count [9] was 4 of 6.
For `CCCCCCCC(=O)O[C@H]1[C@H]2[C@@H](CC1(C)C)C(=O)[C@]13O[C@H]1C(=O)[C@]1(CO1)[C@]23C`, the survivor count (dose: 2.5 mg/kg/injection, schedule: Q01DX009 (ip), vehicle: Klucel (hydroxypropylcellulose) (HPC)) was 10 of 10, the survivor count (dose: 2.5 mg/kg/injection, schedule: Q01DX009 (ip), vehicle: saline with Tween-80) was 10 of 10 and the survivor count (dose: 5.0 mg/kg/injection, schedule: Q01DX009 (ip), vehicle: Klucel (hydroxypropylcellulose) (HPC)) was 10 of 10. For the same compound, the survivor count (dose: 5.0 mg/kg/injection, schedule: Q01DX009 (ip), vehicle: saline with Tween-80) was 6 of 6, the survivor count (dose: 10.0 mg/kg/injection, schedule: Q01DX009 (ip), vehicle: saline with Tween-80) was 5 of 6 and the survivor count (dose: 20.0 mg/kg/injection, schedule: Q01DX009 (ip), vehicle: Klucel (hydroxypropylcellulose) (HPC)) was 10 of 10.
For `CCCCCCCCCCCCNC(=O)Nc1ccc(C)cc1C`, the survivor count [4] was 9 of 10.
In the case of `CCCCCCCCCCCCCC(=O)CC`, the survivor count (dose: 37.5 mg/kg/injection, schedule: Q01DX009 (ip), vehicle: saline with Tween-80) is reported as 9 of 10, the survivor count (dose: 75.0 mg/kg/injection, schedule: Q01DX009 (ip), vehicle: saline with Tween-80) is reported as 9 of 10 and 10 of 10 and the survivor count (dose: 150.0 mg/kg/injection, schedule: Q01DX009 (ip), vehicle: saline with Tween-80) is reported as 10 of 10. For the same compound, the survivor count (dose: 300.0 mg/kg/injection, schedule: Q01DX009 (ip), vehicle: saline with Tween-80) was 7 of 10.
For `CCOc1ccc(NC(=O)Nc2ccccc2)cc1`, the survivor count [8] was 10 of 10 and the survivor count [9] was 10 of 10.
For `O.O.O=c1[nH]cc(CO)c(=O)[nH]1.[NH2-].[NH2-].[Pt+2]`, the T/C [2] was 136 % of control.
`C=CCN(C)N=Nc1ccc(C(N)=O)cc1` was tested, and the survivor count [7] was 10 of 10.
With `O=C(NC(Cc1ccccc1)C(=O)O)c1ccccc1` (stereo not drawn) the survivor count [8] was 10 of 10 and the survivor count [9] was 9 of 10.
In the case of `CC(O)C(NC(=O)OC(C)(C)C)C(=O)O` (stereo not drawn), the T/C (dose: 100.0 mg/kg/injection, schedule: Q01DX009 (ip), vehicle: saline) is reported as 140 % of control.
For `CSCCC(NC(=O)C(Cc1ccccc1)NC(=O)OCc1ccccc1)C(=O)O` (stereo not drawn) (Cbz-Phe-Met-OH; configuration not given here), the survivor count [8] was 9 of 10 and the survivor count [9] was 9 of 10.
`NC(=S)c1cn(C2OC(CO)C(O)C2O)c2ncnc(N)c12` (stereo not drawn) was tested, and the survivor count (dose: 10.0 mg/kg/injection, schedule: Q01DX009 (ip), vehicle: saline) was 6 of 6 and the survivor count [1] was 0 of 6.
With `[Cl][Pt+2][Cl].[NH-]c1cc(Cl)c(Cl)cc1[NH-]` the T/C (dose: 20.0 mg/kg/injection, schedule: Q01DX009 (ip), vehicle: saline with Tween-80) was 125 % of control and the T/C (dose: 160.0 mg/kg/injection, schedule: Q01DX009 (ip), vehicle: saline with Tween-80) was 132 % of control.
In the case of `Cc1cccc(NC(=O)c2ccc(Cl)cc2Cl)c1C`, the survivor count [3] is reported as 10 of 10, the survivor count [7] is reported as 9 of 9 and the survivor count [4] is reported as 10 of 10.
In the case of `COc1ccc2c(c1)c(C#N)cc[n+]2C`, the survivor count [10] is reported as 10 of 10.
`O=C1C=C(C2CCCCC2)C(=O)c2ccccc21` was tested, and the survivor count [8] was 10 of 10 and the survivor count [9] was 10 of 10.
For `COc1cccc2c1C(=O)c1c(O)c3c(c(O)c1C2=O)C[C@@](O)(C(=O)COC(=O)Cc1ccccc1)C[C@@H]3OC1CC(N)C(O)C(C)O1` (stereo partly drawn), the survivor count (dose: 4.0 mg/kg/injection, schedule: Q01DX009 (ip), vehicle: saline with Tween-80) was 10 of 10, the survivor count (dose: 8.0 mg/kg/injection, schedule: Q01DX009 (ip), vehicle: saline with Tween-80) was 10 of 10 and the survivor count (dose: 16.0 mg/kg/injection, schedule: Q01DX009 (ip), vehicle: saline with Tween-80) was 3 of 10 and 9 of 10.
In the case of `C=C1C(=O)O[C@@H]2[C@H](O)[C@@H](C)[C@@H]3C=CC(=O)[C@@]3(C)[C@H](OC(=O)C=C(C)C)[C@H]12`, the survivor count [10] is reported as 6 of 10.
`Clc1ccc2c(c1)C(Nc1cc3c4ccccc4ccc3c3ccccc13)c1cc(Cl)cc(Cl)c1-2` (stereo not drawn) was tested, and the survivor count [11] was 6 of 6, the survivor count [5] was 6 of 6 and the survivor count [12] was 6 of 6. For the same compound, the survivor count [6] was 6 of 6, the survivor count [8] was 6 of 6 and the survivor count [9] was 6 of 6. For the same compound, the survivor count (dose: 800.0 mg/kg/injection, schedule: Q01DX009 (ip), vehicle: saline with Tween-80) was 6 of 6.
For `COc1cc2c[n+](C)c3c(c2cc1OC)Cc1cc2c(cc1-3)OCO2`, the T/C (dose: 6.25 mg/kg/injection, schedule: Q01DX009 (ip), vehicle: saline with Tween-80) was 148 % of control, the T/C [11] was 131 % of control [9 of 10 alive on day 9] and the T/C [5] was 139 % of control. For the same compound, the T/C [12] was 147 % of control.
For `CCOc1ccc(NC(=O)Nc2cccc3ccccc23)cc1`, the survivor count [2] was 9 of 10, the survivor count (dose: 25.0 mg/kg/injection, schedule: Q01DX009 (ip), vehicle: Klucel (hydroxypropylcellulose) (HPC)) was 8 of 10 and the survivor count (dose: 50.0 mg/kg/injection, schedule: Q01DX009 (ip), vehicle: Klucel (hydroxypropylcellulose) (HPC)) was 10 of 10. For the same compound, the survivor count [3] was 10 of 10 and the survivor count [7] was 10 of 10.
For `O=C(O)C1C2CCC1C2` (stereo not drawn), the survivor count (dose: 200.0 mg/kg/injection, schedule: Q04DX003 (ip), vehicle: saline with Tween-80) was 9 of 10 and the survivor count (dose: 400.0 mg/kg/injection, schedule: Q04DX003 (ip), vehicle: saline with Tween-80) was 7 of 10.
